Each structure is given as a SMILES string. This is one part of the list. Values are raw readings; no control value is given beside them.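 Primary screen: polymyxin B was added at a level permeabilizing Salmonella outer membranes while sparing inner membranes. DMSO wells, both with and without polymyxin B, established maximum growth. Plate-to-plate variation meant each plate was ranked on its own, and the lowest-OD600 compounds were selected as hits.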

The subject of this assay is Salmonella enterica serovar Typhimurium SL1344. Briefly: bacterial growth OD600 after 18 h with compound and polymyxin B; higher = more bacterial growth (less inhibition). Particulars: 50 µM, Mueller-Hinton broth.

For the compound `CCC1CN(Cc2cc(OC)c3c(c2)OCO3)Cc2cc(OC)ccc2O1` (stereo unspecified), the “bacterial growth OD600” value (polymyxin B 0.75 µg/mL) came out at 0.009. As for `Fc1ccccc1CN(CC1CCN(C2CCCC2)CC1)CC1CCCO1` (stereo unspecified), the “bacterial growth OD600” value (polymyxin B 1 µg/mL) was 0.849. Consider `CN(C(=O)CCc1cccnc1)C1CCCN(Cc2ccccc2F)C1` (stereo unspecified), for which the “bacterial growth OD600” value (polymyxin B 1 µg/mL) stood at 1.05. With `O=C(c1cn(C/C=C/c2ccccc2)nn1)N1CCN(c2cccc(Cl)c2)CC1`, where the note is “polymyxin B 1 µg/mL”, the “bacterial growth OD600” value was determined as 0.825. Consider `O=C(Nc1ccc(Oc2ccccc2F)cc1)C1CCN(Cc2cccnc2)CC1`, for which, for the setting “polymyxin B 0.75 µg/mL”, the “bacterial growth OD600” value was found to be 0.011. For `COc1c(C)cc(C(=O)C2CCCN(Cc3cccc(C(C)=O)c3)C2)cc1C` (stereo unspecified), the “bacterial growth OD600” value (polymyxin B 1 µg/mL) amounted to 0.897. On the same count and under the same terms, the result for `CN(Cc1cccc(-n2cccn2)c1)C(=O)Cn1nnnc1CN1CCCC1` reads 0.806.

As for `O=C(c1ccc(N2CCC(O)CC2)nc1)N1CCC(CCn2cccn2)CC1`, for the setting “polymyxin B 0.75 µg/mL”, the “bacterial growth OD600” value worked out at 0.8.

For the compound `c1cncc(C2CCCCN2c2nc3nonc3nc2N2CCOCC2)c1` (stereo unspecified), under “polymyxin B 0.75 µg/mL”, the “bacterial growth OD600” value came to 0.773. On the same count and under the same terms, in the case of `COc1ccc(/C=C/CN2CCOc3ccc(C(O)Cc4ccccc4)cc3C2)cc1` (stereo unspecified) it was 0.024. As to `COc1ccc(OC2CCN(C(=O)C3CC3)CC2)c(C(=O)NCc2cnc(C)cn2)c1`, for the setting “polymyxin B 1 µg/mL”, the “bacterial growth OD600” value was 0.921. `CN(CC1CCOCC1)c1nncc(-c2ccc(F)cc2)n1`: the “bacterial growth OD600” value (polymyxin B 0.75 µg/mL) turned out to be 0.76. As to `Cc1ccc(-c2nnc(CCC(=O)NCCc3cccc4ccccc34)o2)s1`, the “bacterial growth OD600” value (polymyxin B 0.75 µg/mL) came to 0.001. Take `Cc1cc(C(=O)NCc2cccnc2N(C)Cc2ccccc2)c(=O)[nH]c1C`: the “bacterial growth OD600” value (polymyxin B 0.75 µg/mL) was 0.589. Take `COC(=O)CNC(=O)c1csc2nc(-c3ccccc3)cn12`: the “bacterial growth OD600” value (polymyxin B 1 µg/mL) amounted to 0.882. Turning to `O=C(NCCN1Cc2ccccc2OC(c2ccsc2)C1)C1CC(=O)N(Cc2ccccn2)C1` (stereo unspecified), the “bacterial growth OD600” value (polymyxin B 0.75 µg/mL) was determined as 0.798. As to `CN1CCN(c2ncccc2CNC(=O)C[C@@H]2C[C@@H]3C=C[C@H]2C3)CC1`, under “polymyxin B 0.75 µg/mL”, the “bacterial growth OD600” value came to 0.825. Regarding `C=C(C)CN(C)c1ccc(C(=O)N2CCC(CN3CCCC3=O)CC2)cn1`, under “polymyxin B 0.75 µg/mL”, the “bacterial growth OD600” value turned out to be 0.779. The same measure, in the same setting: in the case of `COc1ccc2c(c1)OC(C)CN(CC(=O)N1CCC(c3nc4ccccc4o3)CC1)C2` (stereo unspecified) it was 0.939. On to `COc1ccccc1C1(CC(=O)N2CCCOc3c(cccc3OC)C2)CC(=O)N(C)C1=O` (stereo unspecified), for which, under “polymyxin B 0.75 µg/mL”, the “bacterial growth OD600” value was found to be 0.951. In the case of `O=C(NCc1ccc2c(c1)OCO2)c1coc(COc2cccc(F)c2F)n1`, under “polymyxin B 1 µg/mL”, the “bacterial growth OD600” value is 0.84.

The record behind these values is the supplement of paper PMC12889115.
